# For at least one compound, name, drawing or mass did not settle the structure.
# Legend:
# HUVECs [1] = test: Apoptosis rate by flow cytometry (Ann-V+ cells) in HUVECs; type: cell-based, human; settings: rapamycin 5 µM, 3 h
# HUVECs [2] = test: qPCR of miR-126 strand amounts and nucleo-cytoplasmic distribution in HUVECs; type: cell-based, human
# Protocol: HUVECs were treated with rapamycin (Santa Cruz Biotechnology) at 5 µM, ivermectin (Santa Cruz Biotechnology) at […], 3-methyladenine (Sigma Aldrich) at 5 mM, and/or camptothecin (Abcam) at 500 nM. Unless stated otherwise, treatment was applied for 3 h to analyze early processes and to avoid activation of concomitant or compensatory mechanisms. RNA interference technology was applied to generate specific knockdowns with siRNA against ATG5, ATG7, Mex3a (Qiagen). Functional studies on miRNA function were carried with miScript miRNA mimics and inhibitors of miR-126-5p (Qiagen). Overexpression of KLF2 and Mex3a were obtained by pCMV-hKLF2 and pCMV-hMex3a plasmids. Transfections were performed by electroporation using Amaxa Nucleofector technology (Lonza) or Lipofectamine™ 2000 (ThermoFisher Scientific) according to the manufacturer's protocols.
smiles,measurement,setting,value
CO[C@H]1C[C@@H]2CC[C@@H](C)[C@@](O)(O2)C(=O)C(=O)N2CCCC[C@H]2C(=O)O[C@H]([C@H](C)C[C@@H]2CC[C@@H](O)[C@H](OC)C2)CC(=O)[C@H](C)/C=C(\C)[C@@H](O)[C@@H](OC)C(=O)[C@H](C)C[C@H](C)/C=C/C=C/C=C/1C [rapamycin],EC apoptosis,HUVECs [1],reduction
same,amount of miR-126-3p,HUVECs [2]; ECs,reduced
same,amount of miR-126-5p,HUVECs [2]; ECs,preserved
same,nuclear miR-126-5p,"HUVECs [2]; fractional qPCR, ivermectin with rapamycin, 3-methyladenine with KLF2 overexpression",nuclear enrichment
